{"source": "patent US20070042491A1", "about": "“Amplification of cell populations from embryonic stem cells” (priority 2005, published 2007)", "key": {"hESC (line H9) [1]": {"tested_on": "hESC (line H9)", "assay": "Histochemical staining (ALP/von Kossa) and quantification of bone nodules", "type": "cell-based, human", "conditions": "hESC from EB"}, "hESC (line H9) [2]": {"tested_on": "hESC (line H9)", "assay": "SEM of the matrix/culture dish interface for cement line matrix", "type": "cell-based, human", "conditions": "hESC derived from EB"}}, "note": "At least one structure is not confirmed: it was looked up by name or label, or the drawing left a doubt.", "data": [{"molecule": "C[C@@H]1C[C@H]2[C@@H]3CCC4=CC(=O)C=C[C@]4(C)[C@@]3(F)[C@@H](O)C[C@]2(C)[C@@]1(O)C(=O)CO", "note": "[DEX, dexamethasone]", "values": [{"measurement": "ALP staining and mineralized areas", "setting": "hESC (line H9) [1]", "value": "areas of intense ALP staining"}, {"measurement": "Cement line matrix formation", "setting": "hESC (line H9) [2]", "value": "a mineralized cement line matrix was revealed"}]}]}
